Here are results for one molecule from patent publication US20150147318A1.

These are yes or no findings as the source states them, for the method shown. Some binding calls cover weakened binding; strength is not graded here.

This assay addresses recombinant canine Nerve Growth Factor (Canis lupus familiaris NGF) (canine (Canis lupus familiaris)). Briefly: SPR, binding to canine NGF. A general note: Surface plasmon resonance follows binding to a sensor surface in real time, without labels.

B1: QC23LC (antibody, V domains shown)
VH: EVQLVESGGDLARPGGSLKLSCVVSGFSLIGYDINWVRQAPGKGLQWVTMIWGDGTTDYNSALKSRFTVSRDNAMNTVYLQMNSLRVEDTAVYYCARGGYYYGTSYYFDYWGQGTLVTVSS
VL: DIVMTQTPLSLSVSPGEPASISCRASQDISNHLNWFRQKPDGTVKLLIYYISRFHSGVPSRFSGSGSGTDFTLRISRVEADDAGVYYCQQSKTLPYTFGQGTKLEIK
Take B1: the binding result is “binds”.
